# Laboratory results taken from the supplement of paper PMC8728848.
# This is one part of the list.
# B1: SJCP3842 (Schistosoma japonicum) (protein)
# chain: MFKMRIINLVNISTVLLLINLLQTKSRLVGKENGFMLTVSIYGAQLSDKMTSVPVSWTIDYEDPEKSAFKKLVTDSCDTFSEYVKSQIPKGSVDGQCTSHIFQRPGSGSGVSISLTLSFIYVDVTQPDTVALKTELEKHFANFVTIHSHKITQAQFRINQKAIVIPTGDKDAIDGSKWKIIAIIALVALAIVVIGGFIYICVK
# Assays:
# Assay in all cases: glycan array binding signal (z-score within array); higher = stronger binding
# Conditions in all cases: glycan notation: IUPAC condensed, linker removed
# [1] = target: Neu5Ac(a2-3)Gal(b1-3)GalNAc
# In short: (§1)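 Glycan array data came from 3228 arrays in the Consortium for Functional Glycomics database, and only arrays with an available protein sequence were kept. Glycan names were put into IUPAC-condensed notation, and columns mapping to the same glycan were averaged. The binding signal is a within-array Z-score, averaged across arrays of one protein sequence run at different concentrations or buffers and across linkers. A negative Z-score can be read as non-binding.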
# [2] = target: Neu5Ac(a2-3)Gal(b1-3)GalNAc(b1-3)Gal(a1-4)Gal(b1-4)Glc
# In short: as §1
# [3] = target: Neu5Ac(a2-3)Gal(b1-3)GalNAc(b1-4)Gal(b1-4)Glc
# In short: as §1
# [4] = target: Neu5Ac(a2-3)Gal(b1-3)GalNAc(b1-4)[Neu5Ac(a2-3)]Gal(b1-4)Glc
# In short: as §1
# [5] = target: Neu5Ac(a2-3)Gal(b1-3)GalNAc(b1-4)[Neu5Ac(a2-8)Neu5Ac(a2-3)]Gal(b1-4)Glc
# In short: as §1
# [6] = target: Neu5Ac(a2-3)Gal(b1-3)GalNAc6S
# In short: as §1
# [7] = target: Neu5Ac(a2-3)Gal(b1-3)GlcNAc
# In short: as §1
# [8] = target: Neu5Ac(a2-3)Gal(b1-3)GlcNAc(b1-2)Man
# In short: as §1
# [9] = target: Neu5Ac(a2-3)Gal(b1-3)GlcNAc(b1-2)Man(a1-3)[GlcNAc(b1-4)][Neu5Ac(a2-3)Gal(b1-3)GlcNAc(b1-2)Man(a1-6)]Man(b1-4)GlcNAc(b1-4)GlcNAc
# In short: as §1
# [10] = target: Neu5Ac(a2-3)Gal(b1-3)GlcNAc(b1-2)Man(a1-3)[Neu5Ac(a2-3)Gal(b1-3)GlcNAc(b1-2)Man(a1-6)]Man(b1-4)GlcNAc(b1-4)GlcNAc
# In short: as §1
# [11] = target: Neu5Ac(a2-3)Gal(b1-3)GlcNAc(b1-2)[Neu5Ac(a2-3)Gal(b1-3)GlcNAc(b1-4)]Man(a1-6)[Neu5Ac(a2-3)Gal(b1-3)GlcNAc(b1-2)Man(a1-3)]Man(b1-4)GlcNAc(b1-4)GlcNAc
# In short: as §1
# [12] = target: Neu5Ac(a2-3)Gal(b1-3)GlcNAc(b1-3)Gal(b1-3)GlcNAc
# In short: as §1
# [13] = target: Neu5Ac(a2-3)Gal(b1-3)GlcNAc(b1-3)Gal(b1-4)GlcNAc
# In short: as §1
# [14] = target: Neu5Ac(a2-3)Gal(b1-3)GlcNAc(b1-3)GalNAc
# In short: as §1
# [15] = target: Neu5Ac(a2-3)Gal(b1-3)GlcNAc(b1-6)GalNAc
# In short: as §1
# [16] = target: Neu5Ac(a2-3)Gal(b1-3)GlcNAc6S
# In short: as §1
# [17] = target: Neu5Ac(a2-3)Gal(b1-3)[Fuc(a1-4)]GlcNAc
# In short: as §1
# [18] = target: Neu5Ac(a2-3)Gal(b1-3)[Fuc(a1-4)]GlcNAc(b1-3)Gal(b1-3)[Fuc(a1-4)]GlcNAc
# In short: as §1
# [19] = target: Neu5Ac(a2-3)Gal(b1-3)[Fuc(a1-4)]GlcNAc(b1-3)Gal(b1-4)[Fuc(a1-3)]GlcNAc
# In short: as §1
# [20] = target: Neu5Ac(a2-3)Gal(b1-3)[GlcNAc(b1-6)]GalNAc
# In short: as §1
# [21] = target: Neu5Ac(a2-3)Gal(b1-3)[Neu5Ac(a2-6)]GalNAc
# In short: as §1
# [22] = target: Neu5Ac(a2-3)Gal(b1-3)[Neu5Ac(a2-6)]GlcNAc(b1-3)[Fuc(a1-3)[Gal(b1-4)]GlcNAc(b1-6)]Gal(b1-4)Glc
# In short: as §1
# [23] = target: Neu5Ac(a2-3)Gal(b1-3)]Neu5Ac(a2-3)Gal(b1-4)]GlcNAc
# In short: as §1
# [24] = target: Neu5Ac(a2-3)Gal(b1-4)Glc
# In short: as §1
# [25] = target: Neu5Ac(a2-3)Gal(b1-4)GlcNAc
# In short: as §1
# [26] = target: Neu5Ac(a2-3)Gal(b1-4)GlcNAc(b1-2)Man
# In short: as §1
# [27] = target: Neu5Ac(a2-3)Gal(b1-4)GlcNAc(b1-2)Man(a1-3)[GlcNAc(b1-4)][Neu5Ac(a2-3)Gal(b1-4)GlcNAc(b1-2)Man(a1-6)]Man(b1-4)GlcNAc(b1-4)GlcNAc
# In short: as §1
# [28] = target: Neu5Ac(a2-3)Gal(b1-4)GlcNAc(b1-2)Man(a1-3)[Neu5Ac(a2-3)Gal(b1-4)GlcNAc(b1-2)Man(a1-6)]Man(b1-4)GlcNAc(b1-4)GlcNAc
# In short: as §1
# [29] = target: Neu5Ac(a2-3)Gal(b1-4)GlcNAc(b1-2)Man(a1-3)[Neu5Ac(a2-3)Gal(b1-4)GlcNAc(b1-2)Man(a1-6)]Man(b1-4)GlcNAc(b1-4)[Fuc(a1-6)]GlcNAc
# In short: as §1
# [30] = target: Neu5Ac(a2-3)Gal(b1-4)GlcNAc(b1-2)Man(a1-3)[Neu5Ac(a2-6)Gal(b1-4)GlcNAc(b1-2)Man(a1-6)]Man(b1-4)GlcNAc(b1-4)GlcNAc
# In short: as §1
# [31] = target: Neu5Ac(a2-3)Gal(b1-4)GlcNAc(b1-2)[Neu5Ac(a2-3)Gal(b1-4)GlcNAc(b1-4)]Man(a1-3)[GlcNAc(b1-4)][Neu5Ac(a2-3)Gal(b1-4)GlcNAc(b1-2)[Neu5Ac(a2-3)Gal(b1-4)GlcNAc(b1-6)]Man(a1-6)]Man(b1-4)GlcNAc(b1-4)GlcNAc
# In short: as §1
# [32] = target: Neu5Ac(a2-3)Gal(b1-4)GlcNAc(b1-2)[Neu5Ac(a2-3)Gal(b1-4)GlcNAc(b1-4)]Man(a1-3)[GlcNAc(b1-4)][Neu5Ac(a2-3)Gal(b1-4)GlcNAc(b1-4)Man(a1-6)]Man(b1-4)GlcNAc(b1-4)GlcNAc
# In short: as §1
# [33] = target: Neu5Ac(a2-3)Gal(b1-4)GlcNAc(b1-2)[Neu5Ac(a2-3)Gal(b1-4)GlcNAc(b1-6)]Man(a1-6)[Neu5Ac(a2-3)Gal(b1-4)GlcNAc(b1-2)Man(a1-3)][GlcNAc(b1-4)]Man(b1-4)GlcNAc(b1-4)GlcNAc
# In short: as §1
# [34] = target: Neu5Ac(a2-3)Gal(b1-4)GlcNAc(b1-3)Gal
# In short: as §1
# [35] = target: Neu5Ac(a2-3)Gal(b1-4)GlcNAc(b1-3)Gal(b1-3)GlcNAc
# In short: as §1
# [36] = target: Neu5Ac(a2-3)Gal(b1-4)GlcNAc(b1-3)Gal(b1-4)GlcNAc
# In short: as §1
# [37] = target: Neu5Ac(a2-3)Gal(b1-4)GlcNAc(b1-3)Gal(b1-4)GlcNAc(b1-2)Man(a1-3)[Neu5Ac(a2-3)Gal(b1-4)GlcNAc(b1-3)Gal(b1-4)GlcNAc(b1-2)Man(a1-6)]Man(b1-4)GlcNAc(b1-4)GlcNAc
# In short: as §1
# [38] = target: Neu5Ac(a2-3)Gal(b1-4)GlcNAc(b1-3)Gal(b1-4)GlcNAc(b1-3)Gal(b1-4)GlcNAc
# In short: as §1
# [39] = target: Neu5Ac(a2-3)Gal(b1-4)GlcNAc(b1-3)Gal(b1-4)GlcNAc(b1-3)Gal(b1-4)GlcNAc(b1-2)Man(a1-3)[Neu5Ac(a2-3)Gal(b1-4)GlcNAc(b1-3)Gal(b1-4)GlcNAc(b1-3)Gal(b1-4)GlcNAc(b1-2)Man(a1-6)]GalNAc
# In short: as §1
# [40] = target: Neu5Ac(a2-3)Gal(b1-4)GlcNAc(b1-3)Gal(b1-4)GlcNAc(b1-3)GalNAc
# In short: as §1
# [41] = target: Neu5Ac(a2-3)Gal(b1-4)GlcNAc(b1-3)Gal(b1-4)GlcNAc(b1-3)[Neu5Ac(a2-3)Gal(b1-4)GlcNAc(b1-3)Gal(b1-4)GlcNAc(b1-6)]GalNAc
# In short: as §1
# [42] = target: Neu5Ac(a2-3)Gal(b1-4)GlcNAc(b1-3)Gal(b1-4)GlcNAc(b1-6)[Gal(b1-3)]GalNAc
# In short: as §1
# [43] = target: Neu5Ac(a2-3)Gal(b1-4)GlcNAc(b1-3)Gal(b1-4)[Fuc(a1-3)]GlcNAc
# In short: as §1
# [44] = target: Neu5Ac(a2-3)Gal(b1-4)GlcNAc(b1-3)GalNAc
# In short: as §1
# [45] = target: Neu5Ac(a2-3)Gal(b1-4)GlcNAc(b1-3)[Neu5Ac(a2-3)Gal(b1-4)GlcNAc(b1-6)]GalNAc
# In short: as §1
binder,measurement,setting,value
B1,glycan array binding signal (z-score),[1],-0.559
same,glycan array binding signal (z-score),[2],0.587
same,glycan array binding signal (z-score),[3],0.958
same,glycan array binding signal (z-score),[4],0.003
same,glycan array binding signal (z-score),[5],-1.47
same,glycan array binding signal (z-score),[6],0.231
same,glycan array binding signal (z-score),[7],0.129
same,glycan array binding signal (z-score),[8],0.241
same,glycan array binding signal (z-score),[9],-1.16
same,glycan array binding signal (z-score),[10],0.074
same,glycan array binding signal (z-score),[11],-0.565
same,glycan array binding signal (z-score),[12],-1.12
same,glycan array binding signal (z-score),[13],-1.77
same,glycan array binding signal (z-score),[14],-0.765
same,glycan array binding signal (z-score),[15],1.36
same,glycan array binding signal (z-score),[16],0.502
same,glycan array binding signal (z-score),[17],-0.038
same,glycan array binding signal (z-score),[18],1.28
same,glycan array binding signal (z-score),[19],1.81
same,glycan array binding signal (z-score),[20],0.062
same,glycan array binding signal (z-score),[21],-0.204
same,glycan array binding signal (z-score),[22],2.18
same,glycan array binding signal (z-score),[23],0.022
same,glycan array binding signal (z-score),[24],0.467
same,glycan array binding signal (z-score),[25],0.765
same,glycan array binding signal (z-score),[26],1.67
same,glycan array binding signal (z-score),[27],-0.146
same,glycan array binding signal (z-score),[28],0.312
same,glycan array binding signal (z-score),[29],-0.096
same,glycan array binding signal (z-score),[30],-1.42
same,glycan array binding signal (z-score),[31],0.191
same,glycan array binding signal (z-score),[32],-0.064
same,glycan array binding signal (z-score),[33],0.462
same,glycan array binding signal (z-score),[34],-0.718
same,glycan array binding signal (z-score),[35],-0.358
same,glycan array binding signal (z-score),[36],1.89
same,glycan array binding signal (z-score),[37],-0.047
same,glycan array binding signal (z-score),[38],-0.929
same,glycan array binding signal (z-score),[39],1.85
same,glycan array binding signal (z-score),[40],-0.893
same,glycan array binding signal (z-score),[41],-0.177
same,glycan array binding signal (z-score),[42],-0.097
same,glycan array binding signal (z-score),[43],-0.737
same,glycan array binding signal (z-score),[44],0.873
same,glycan array binding signal (z-score),[45],-1.23

# Reformatted tab-delimited: part of the list above.
binder	measurement	setting	value
B1	glycan array binding signal (z-score)	[33]	0.462
same	glycan array binding signal (z-score)	[34]	-0.718
